Data from publication PMC6693557.
No constants are given. Whether binding was seen depends on the method and setting. Binding seen in cells or lysates may run through a third protein. These calls come from enrichment with a bait or labelling near it, and not all partners need be listed. Sequences can lack the tags named with a protein.

Amino acid sequences for entries named in this document (tags omitted).
UniProt A0A509APU6: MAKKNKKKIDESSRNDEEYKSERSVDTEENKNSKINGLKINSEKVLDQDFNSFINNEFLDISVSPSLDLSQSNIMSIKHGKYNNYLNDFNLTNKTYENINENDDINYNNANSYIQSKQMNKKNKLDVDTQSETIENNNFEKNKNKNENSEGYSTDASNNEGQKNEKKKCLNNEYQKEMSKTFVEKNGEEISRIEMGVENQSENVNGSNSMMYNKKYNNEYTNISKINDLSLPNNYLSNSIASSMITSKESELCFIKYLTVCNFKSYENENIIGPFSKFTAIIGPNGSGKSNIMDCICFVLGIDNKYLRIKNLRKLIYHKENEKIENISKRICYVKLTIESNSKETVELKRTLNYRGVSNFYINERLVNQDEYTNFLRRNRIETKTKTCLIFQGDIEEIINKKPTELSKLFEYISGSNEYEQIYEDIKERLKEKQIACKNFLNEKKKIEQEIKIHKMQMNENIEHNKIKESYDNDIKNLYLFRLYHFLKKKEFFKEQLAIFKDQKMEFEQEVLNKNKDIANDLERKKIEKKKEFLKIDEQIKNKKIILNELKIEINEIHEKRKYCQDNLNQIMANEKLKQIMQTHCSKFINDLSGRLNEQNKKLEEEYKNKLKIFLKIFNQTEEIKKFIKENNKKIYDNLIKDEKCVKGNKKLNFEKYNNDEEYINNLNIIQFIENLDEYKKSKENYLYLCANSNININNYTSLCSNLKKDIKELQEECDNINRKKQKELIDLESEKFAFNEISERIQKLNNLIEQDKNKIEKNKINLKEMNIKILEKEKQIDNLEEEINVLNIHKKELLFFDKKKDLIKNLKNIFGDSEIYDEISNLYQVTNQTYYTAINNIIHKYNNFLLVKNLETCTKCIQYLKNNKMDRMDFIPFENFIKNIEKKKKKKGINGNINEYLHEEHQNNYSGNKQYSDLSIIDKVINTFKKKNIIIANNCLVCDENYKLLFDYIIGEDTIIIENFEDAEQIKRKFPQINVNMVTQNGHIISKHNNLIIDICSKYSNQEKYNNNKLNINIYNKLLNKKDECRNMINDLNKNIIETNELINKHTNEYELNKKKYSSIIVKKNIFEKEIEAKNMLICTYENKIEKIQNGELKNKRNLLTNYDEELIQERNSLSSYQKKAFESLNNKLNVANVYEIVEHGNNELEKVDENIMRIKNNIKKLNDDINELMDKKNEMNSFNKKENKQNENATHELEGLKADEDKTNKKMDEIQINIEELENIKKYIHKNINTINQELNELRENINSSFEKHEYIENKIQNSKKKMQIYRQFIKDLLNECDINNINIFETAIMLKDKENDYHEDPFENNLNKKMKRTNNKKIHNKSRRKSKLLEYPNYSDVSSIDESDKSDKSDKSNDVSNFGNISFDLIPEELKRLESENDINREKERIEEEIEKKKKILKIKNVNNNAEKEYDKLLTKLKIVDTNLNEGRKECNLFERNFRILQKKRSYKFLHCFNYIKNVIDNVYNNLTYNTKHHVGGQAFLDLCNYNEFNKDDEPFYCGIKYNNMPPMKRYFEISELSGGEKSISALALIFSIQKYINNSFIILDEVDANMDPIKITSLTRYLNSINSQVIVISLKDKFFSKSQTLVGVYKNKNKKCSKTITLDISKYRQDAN
UniProt A0A509ARI5: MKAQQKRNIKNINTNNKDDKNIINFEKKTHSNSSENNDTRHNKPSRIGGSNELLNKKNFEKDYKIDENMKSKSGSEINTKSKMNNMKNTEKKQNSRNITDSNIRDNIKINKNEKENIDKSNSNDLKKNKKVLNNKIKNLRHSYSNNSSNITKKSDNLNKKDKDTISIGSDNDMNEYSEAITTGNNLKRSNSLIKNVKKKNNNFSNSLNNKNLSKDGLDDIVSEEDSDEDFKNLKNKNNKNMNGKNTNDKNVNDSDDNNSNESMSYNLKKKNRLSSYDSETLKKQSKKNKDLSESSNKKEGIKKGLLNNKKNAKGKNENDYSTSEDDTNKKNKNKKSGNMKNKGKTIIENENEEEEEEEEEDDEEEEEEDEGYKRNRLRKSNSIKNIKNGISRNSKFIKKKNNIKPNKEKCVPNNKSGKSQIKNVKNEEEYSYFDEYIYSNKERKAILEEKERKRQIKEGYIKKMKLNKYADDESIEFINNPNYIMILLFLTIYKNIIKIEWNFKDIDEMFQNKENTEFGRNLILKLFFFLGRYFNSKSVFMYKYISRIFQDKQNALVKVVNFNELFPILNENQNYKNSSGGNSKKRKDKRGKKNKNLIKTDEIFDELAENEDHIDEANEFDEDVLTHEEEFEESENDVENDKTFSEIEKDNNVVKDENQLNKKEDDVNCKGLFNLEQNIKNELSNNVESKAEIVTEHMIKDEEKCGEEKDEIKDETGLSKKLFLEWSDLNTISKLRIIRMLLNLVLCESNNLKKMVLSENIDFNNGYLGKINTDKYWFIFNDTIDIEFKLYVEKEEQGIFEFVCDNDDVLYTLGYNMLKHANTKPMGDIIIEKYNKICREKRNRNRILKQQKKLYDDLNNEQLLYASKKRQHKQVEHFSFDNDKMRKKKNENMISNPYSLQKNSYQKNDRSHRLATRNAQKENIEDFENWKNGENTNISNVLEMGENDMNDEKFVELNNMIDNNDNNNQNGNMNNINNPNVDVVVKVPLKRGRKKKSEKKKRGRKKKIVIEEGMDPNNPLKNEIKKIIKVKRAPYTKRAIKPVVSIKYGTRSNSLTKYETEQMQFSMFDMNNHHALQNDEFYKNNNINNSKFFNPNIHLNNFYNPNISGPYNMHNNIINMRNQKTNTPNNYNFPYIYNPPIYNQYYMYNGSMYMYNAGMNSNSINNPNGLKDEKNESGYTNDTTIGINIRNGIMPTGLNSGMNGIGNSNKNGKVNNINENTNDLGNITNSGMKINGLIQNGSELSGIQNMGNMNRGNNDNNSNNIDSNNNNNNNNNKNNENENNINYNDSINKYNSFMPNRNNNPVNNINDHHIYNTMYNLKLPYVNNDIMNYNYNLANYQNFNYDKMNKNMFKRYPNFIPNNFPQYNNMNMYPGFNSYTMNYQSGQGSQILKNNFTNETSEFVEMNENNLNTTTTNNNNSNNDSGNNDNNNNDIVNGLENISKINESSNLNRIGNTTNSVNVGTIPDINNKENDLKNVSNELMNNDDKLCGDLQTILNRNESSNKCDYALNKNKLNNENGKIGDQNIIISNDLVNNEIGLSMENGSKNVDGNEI

T1: PBANKA_0716000, structural maintenance of chromosomes protein 3, putative, 3xHA-tagged (P. berghei)
T1 sequence: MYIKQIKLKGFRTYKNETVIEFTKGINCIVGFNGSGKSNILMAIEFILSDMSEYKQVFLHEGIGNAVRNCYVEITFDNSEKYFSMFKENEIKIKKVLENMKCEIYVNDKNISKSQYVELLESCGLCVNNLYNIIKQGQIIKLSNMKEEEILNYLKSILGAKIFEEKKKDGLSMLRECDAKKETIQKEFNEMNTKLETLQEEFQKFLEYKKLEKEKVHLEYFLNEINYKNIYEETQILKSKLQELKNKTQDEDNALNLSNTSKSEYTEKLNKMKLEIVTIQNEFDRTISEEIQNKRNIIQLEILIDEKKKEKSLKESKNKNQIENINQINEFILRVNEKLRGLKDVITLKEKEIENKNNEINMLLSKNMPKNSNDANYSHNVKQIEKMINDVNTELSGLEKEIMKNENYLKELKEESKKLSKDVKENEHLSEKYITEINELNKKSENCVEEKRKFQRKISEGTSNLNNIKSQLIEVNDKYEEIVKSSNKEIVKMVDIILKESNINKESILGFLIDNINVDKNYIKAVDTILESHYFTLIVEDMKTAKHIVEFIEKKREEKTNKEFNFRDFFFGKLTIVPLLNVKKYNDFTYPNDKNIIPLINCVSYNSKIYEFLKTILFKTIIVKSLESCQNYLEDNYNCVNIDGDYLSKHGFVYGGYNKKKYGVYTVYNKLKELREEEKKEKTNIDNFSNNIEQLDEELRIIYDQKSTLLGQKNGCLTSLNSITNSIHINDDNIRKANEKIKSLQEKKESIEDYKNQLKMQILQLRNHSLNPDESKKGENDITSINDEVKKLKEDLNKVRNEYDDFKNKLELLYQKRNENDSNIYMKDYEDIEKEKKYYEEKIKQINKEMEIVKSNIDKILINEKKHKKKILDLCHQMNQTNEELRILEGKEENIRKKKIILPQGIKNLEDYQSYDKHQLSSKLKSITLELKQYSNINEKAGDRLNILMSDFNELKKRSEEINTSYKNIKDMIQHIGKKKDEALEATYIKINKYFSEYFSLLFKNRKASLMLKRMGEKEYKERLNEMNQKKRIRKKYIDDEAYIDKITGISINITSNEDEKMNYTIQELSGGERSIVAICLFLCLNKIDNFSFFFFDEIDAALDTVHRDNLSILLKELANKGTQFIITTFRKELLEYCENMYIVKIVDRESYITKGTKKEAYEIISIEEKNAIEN

T2: PBANKA_0942700, chromatin remodeling protein, putative (SNF2L), 3xHA-tagged (P. berghei)
T2 sequence: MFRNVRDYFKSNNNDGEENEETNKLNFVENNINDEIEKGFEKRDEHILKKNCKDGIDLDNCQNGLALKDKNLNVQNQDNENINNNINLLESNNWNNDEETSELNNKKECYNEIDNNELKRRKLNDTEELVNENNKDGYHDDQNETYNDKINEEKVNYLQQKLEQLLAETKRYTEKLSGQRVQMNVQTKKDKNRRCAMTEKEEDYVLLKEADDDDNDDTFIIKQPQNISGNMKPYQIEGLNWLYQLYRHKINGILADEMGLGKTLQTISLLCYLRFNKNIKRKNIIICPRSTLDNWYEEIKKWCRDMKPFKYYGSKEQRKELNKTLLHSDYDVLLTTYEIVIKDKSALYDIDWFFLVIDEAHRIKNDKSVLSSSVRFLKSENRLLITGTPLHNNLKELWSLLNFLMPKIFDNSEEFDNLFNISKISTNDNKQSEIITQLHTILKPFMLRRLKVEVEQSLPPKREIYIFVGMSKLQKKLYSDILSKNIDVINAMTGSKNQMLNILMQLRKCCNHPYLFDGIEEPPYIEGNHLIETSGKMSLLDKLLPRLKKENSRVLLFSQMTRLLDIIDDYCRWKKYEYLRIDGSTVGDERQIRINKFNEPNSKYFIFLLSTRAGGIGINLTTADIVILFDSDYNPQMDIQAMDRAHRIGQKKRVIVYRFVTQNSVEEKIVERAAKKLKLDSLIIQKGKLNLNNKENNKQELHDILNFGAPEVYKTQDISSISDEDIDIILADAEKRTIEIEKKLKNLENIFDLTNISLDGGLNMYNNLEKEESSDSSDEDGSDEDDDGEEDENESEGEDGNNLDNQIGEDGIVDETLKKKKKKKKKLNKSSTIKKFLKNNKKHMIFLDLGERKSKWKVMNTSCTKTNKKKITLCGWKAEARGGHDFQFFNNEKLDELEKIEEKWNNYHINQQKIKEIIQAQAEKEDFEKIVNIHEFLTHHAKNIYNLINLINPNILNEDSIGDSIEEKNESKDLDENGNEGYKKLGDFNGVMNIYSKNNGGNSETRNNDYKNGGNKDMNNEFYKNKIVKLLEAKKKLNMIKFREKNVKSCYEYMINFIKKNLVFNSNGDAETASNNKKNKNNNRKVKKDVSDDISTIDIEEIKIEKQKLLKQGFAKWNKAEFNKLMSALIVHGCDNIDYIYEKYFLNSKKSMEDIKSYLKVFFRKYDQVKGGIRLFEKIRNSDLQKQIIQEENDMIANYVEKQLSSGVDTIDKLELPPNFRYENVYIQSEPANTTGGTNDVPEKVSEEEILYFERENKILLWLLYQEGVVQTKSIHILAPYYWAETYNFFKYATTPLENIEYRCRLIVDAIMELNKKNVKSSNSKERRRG

B1: PBANKA_1304000, conserved Plasmodium protein, unknown function (protein, UniProt A0A509AMW3 1-983)
chain: MEVLAWNDMLKPRIKRSRSIIEREESNTEQYNTPNNQLVIYKNSFKNSSLCYAWNAYFDKNKVKKNIMVCCDLNKICNELLKGIENNSLTIKTFSFLFIGVCNIYKKKVHFIGQDYDLLKRKILSLYKNKDQDVDELGNSKDFKRRKVGKNDNGDDNNGNKRRLSKTPLNIKRGSIGLNEAIPSIIDDFTGRKSRFSLTADEISIAGTEPNNGYYLNDSEMNNQMLMDMSGINDFNFDNDNNTTNNNMNNNYHDLEKALEGSFISRHSTPINNLDGLNLNRSLSESFNHMDKLNAENPIFNNMIPKNMFPNLDASFNEKSMGGNFNNLEFNSVNKSDGFNSMSFYNNAVNGDNMNNLNLSNDYMNGTGGNPYIRTDNTNMFNNMKYRSGINNFNDAVNAPKEFQDISYNNNFMGTFQNMNSPMNNRNDMYNFNPFIRMNSMSNNNFDGRNNLNNFSQRMNNQFGDIDAMSNVMVGSMFSPRKQKNTPQKINYLNRLNFEAYQNFDYFEQKDDDVFIKKLNSLLGLDESEGEEEKEKKGEESLVIPEEEKEKDDSSDKDDFDMDNSDNEKDKSKNNELDLQGKNSNNNKLGVSTSNKSDNMQTSKKRKLEKQVVDKNYMIKESVMRSILKNESVNYKNFLIDTINNEINEQIQREHREFQNFCLQSNTDKTKPIYKMEINFGYESLDYEEKKNVLENYLSYSANDTKYLYENKNVLDNFNIKKCLDNIDENAIYNENDSAMSSNFLPFENNEELMKNNSLNIEEVREQFNGFPIDRDNVIPSEFKNKFSIDLSMTQNDPMDLNLNDLNFKDDMESRIHMDSQISKSLVLYGDDGSVSKADDGQNIHNLNEKLNWEFNSSSLDLPGNSNSDFINIFSKDNESILLEDKRIDFDINLKQYFDLIAKDLLEAYKKLSKKINYIFFDLITKNDKSKEEISILFYITLHLANLGYIQIIQKPILPEHLNSYEENFSRPILIQLVDQKEN

How the values were obtained:
[1] = molecular target: T1, PBANKA_0716000, structural maintenance of chromosomes protein 3, putative, 3xHA-tagged (P. berghei); test: affinity purification with mass spectrometry; anti-HA antibody on Protein G Dynabeads; cleared P. berghei schizont lysate (1 mg protein; 50 mM Tris pH 8, 150 mM NaCl, 1 mM EDTA, 0.1 or 1% NP-40), 2 hours at 4 C; on-bead trypsin digestion, LC-MS/MS; wild-type lysate as control; duplicates; SAINT probability > 0.8 deemed specific
[2] = molecular target: T2, PBANKA_0942700, chromatin remodeling protein, putative (SNF2L), 3xHA-tagged (P. berghei); test: as above

Molecule | binding [1] | binding [2]
PBANKA_0917500, structural maintenance of chromosomes protein 1, putative (from UniProt A0A509APU6 1-1620) | binds | –
PBANKA_1461600, conserved Plasmodium protein, unknown function (from UniProt A0A509ARI5 1-1555) | – | binds
B1 | binds | –
